The nature of the experiment: qHTS Assay for Lipid Storage Modulators in Drosophila S3 Cells.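 On cell number change: cells counted by Cell Tracker Red CMTPX staining in the red channel.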 The note with it: BODIPY lipid droplet fluorescence, 18-24 h; for cell number change: measured here: cell count max response, cells fed with added oleic acid. The method, boiled down:
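Drosophila S3 cells loaded with oleic acid (400 uM, as added) and compounds at several concentrations; lipid droplets imaged by 488-nm laser-scanning cytometry, 500–530 nm intensity and object ratio to cell channel. Percent activity normalized to 20 uM Triacsin C.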
On the technique in general: Quantitative high-throughput screening tests each substance at several concentrations.

[1] abbreviates: measured here: lipid fluorescence (Fed channel) AC50, cells fed with added oleic acid.
[2] abbreviates: measured here: cell number channel AC50, cells fed with added oleic acid.

Some of the results follow. Shown are side measurements of this screen, not its main read-out; they come without a call. Most of these compounds were active or inconclusive in the main read-out, so they are no random draw. The note in brackets gives the kind of curve behind each potency; many fits are weak.

As to `CCN(CC)Cc1cc(CCNC(=O)c2ccc(Cl)cc2)ccc1O`, the cell number change came out at 5.35%. The half-maximal activity concentration (AC50) – broadly, the midpoint of the concentration-response curve, whichever way the signal moves – under setting [1] was 6.51 µM [falling, single point].

For the compound `CCOc1ncccc1C(=O)NNC(=O)c1csc(N2CCOCC2)n1`, the cell number change came out at 3.08%. In addition, the AC50 under setting [2] was 0.00461 µM [rising, full curve, poor fit]. Moreover, the AC50 under setting [1] was 6.51 µM [rising, partial curve].

As to `CCn1c(COc2ccccc2)nnc1SCC(=O)Nc1cc(OC)ccc1OC`, the concentration at half-maximal activity (AC50) under setting [1] was 32.6 µM [falling, single point].

On to `O=[N+]([O-])c1ccc(-c2ccc(/C=N/Nc3nc(NCc4ccccc4)nc(N4CCOCC4)n3)o2)cc1`, for which the AC50 under setting [1] is 29.1 µM [falling, single point].

As for `C=CCNC(=S)Nc1cccc(N)c1`, the cell number change stood at 16.6%. Further, the AC50 under setting [2] was 3.66 µM [falling, partial curve]. Moreover, the half-maximal activity concentration (AC50) under setting [1] was 6.51 µM [falling, single point].

As for `O=C(CS(=O)(=O)Cc1ccccc1)Nc1ccccc1Cl`, the cell number change amounted to 54.4%. Besides, the AC50 under setting [2] is 29.1 µM [rising, single point].

As for `CC1CCCN(C(=O)c2cc3c(=O)n4ccccc4nc3s2)C1` (centres undefined), the cell number change is -22.9%.

As for `Cc1ccc(CCSc2ccc(C(C)C)cc2)cn1`, the cell number change is -33.1%. The AC50 under setting [2] was 13 µM [falling, partial curve, poor fit]. For the same compound, the AC50 under setting [1] was 13 µM [falling, partial curve, poor fit].

Take `COC(=O)c1ccc(NC(=O)COc2ccc(C3C(C#N)=C(N)Oc4c3ccc3ccccc43)cc2OC)cc1` (centres undefined): the cell number change is -10.9%. For the same compound, under setting [1], the AC50 was 2.91 µM [rising, partial curve].

In the case of `N#CCCN(C(=O)COC(=O)c1ccc(S(=O)(=O)Nc2ccccc2)cc1)c1ccccc1`, the cell number change worked out at 31.2%. In addition, the AC50 under setting [2] was 13 µM [rising, partial curve, poor fit].

As for `O=C(OC1CCCCC1)c1ccc(NC(=O)C2CCCCC2)cc1`, the cell number change came out at 5.94%. Besides, the AC50 under setting [1] is 5.8 µM [rising, partial curve].

Consider `Cc1ccccc1CNC(=O)C(=O)NCCC1CCCCN1S(=O)(=O)c1cccs1` (centres undefined), for which the cell number change was -49.5%. For the same compound, under setting [2], the AC50 was 23.1 µM [falling, single point].

In the case of `S=C(NCCN1CCOCC1)Nc1ccccc1Cl`, the cell number change was -12.6%. Also, under setting [1], the concentration at half-maximal activity (AC50) was 5.8 µM [rising, single point].

`Clc1c(-c2nnc3n2CCC3)sc2ccccc12`: the cell number change is 109%. For the same compound, the AC50 under setting [2] was 20.6 µM [rising, partial curve]. Also, under setting [1], the AC50 is 16.4 µM [rising, partial curve].

`c1ccc(CNc2nc(-c3ccccc3)nc3ccccc23)cc1`: the cell number change is -16.4%.

With `O=C(NC1CCCCCC1)c1ccc(Cl)c(S(=O)(=O)N2CCOCC2)c1`, the cell number change stood at 13.2%.

Regarding `Cc1ccc(C(=O)N/N=C\C=C\c2ccccc2[N+](=O)[O-])cn1`, the cell number change is -15.5%. Further, the AC50 under setting [1] was 29.1 µM [falling, single point].

As for `CCOC(=O)C1=C(COC(=O)/C=C/c2ccc(Cl)cc2)NC(=O)NC1C` (centres undefined), the cell number change worked out at 42.5%. In addition, the AC50 under setting [2] was 8.2 µM [rising, partial curve, poor fit]. Moreover, the AC50 under setting [1] was 29.1 µM [rising, single point].

With `Cc1ccc(C(=O)Nc2nc(C(C)(C)C)cs2)s1`, the cell number change is 6.37%. For the same compound, under setting [1], the AC50 was 5.17 µM [rising, single point].

`O=C(N/C(=C\c1ccc(F)cc1)C(=O)N1CCCCCC1)c1ccccc1`: the AC50 under setting [2] was 6.51 µM [rising, single point] and the half-maximal activity concentration (AC50) under setting [1] was 6.51 µM [rising, single point].

As for `COc1ccc(Nc2ccc([N+](=O)[O-])cc2[N+](=O)[O-])cc1`, the cell number change is -36%. Also, under setting [1], the AC50 was 29.1 µM [falling, single point].

Turning to `Cc1cccnc1NC(=O)c1cccc(S(=O)(=O)N2CCCc3ccccc32)c1`, the cell number change is -24.9%. Further, the concentration at half-maximal activity (AC50) under setting [1] was 23.1 µM [falling, partial curve, poor fit].

As for `CC(C)C(NC(N)=O)C(=O)NC1CCCCC1` (centres undefined), the cell number change amounted to 3.51%.

On to `O=C(Nc1ccc([N+](=O)[O-])cc1)c1nc[nH]c1C(=O)NC1CCCCC1`, for which the cell number change amounted to 3.26%. Also, under setting [1], the half-maximal activity concentration (AC50) is 1.3 µM [rising, full curve].

In the case of `O=C(NC(Cc1c[nH]c2ccccc12)C(=O)O)/C(=C\c1ccc2c(c1)OCO2)NC(=O)c1ccccc1` (centres undefined), the cell number change is 3.23%. Under setting [1], the AC50 is 0.116 µM [falling, full curve, poor fit].

With `N#Cc1c(-c2ccccc2Cl)noc1/C=C/Nc1ccc(C(=O)O)cc1`, the cell number change was -6.71%.

In the case of `CCCCC(=O)Nc1ccc(NC(=S)NC(=O)c2cccs2)cc1OC`, the cell number change was -40.5%. Also, under setting [2], the AC50 was 6.51 µM [falling, partial curve]. The half-maximal activity concentration (AC50) under setting [1] is 29.1 µM [rising, partial curve, poor fit].

Take `COc1cc(OC)cc(-n2nnnc2SCC(=O)NCc2ccc3c(c2)OCO3)c1`: the cell number change was 23.1%. For the same compound, under setting [2], the concentration at half-maximal activity (AC50) is 0.00517 µM [rising, full curve, poor fit]. Further, under setting [1], the AC50 was 3.66 µM [rising, partial curve].

On to `CCc1ccc(NC2=CC(=O)C(=O)c3ccccc32)cc1`, for which the cell number change was -49.8%. Also, under setting [2], the AC50 was 14.6 µM [falling, partial curve]. For the same compound, the AC50 under setting [1] was 11.6 µM [falling, partial curve].

On to `Cc1cccc(C(=O)NC(=S)Nc2ccc(S(=O)(=O)N(C)c3ccccc3)cc2)c1`, for which the AC50 is 2.91 µM [rising, partial curve] under setting [2] and 0.731 µM [rising, full curve, poor fit] under setting [1].

Consider `O=C(NC1CCCCC1)C(c1ccccc1)N1CCc2ccccc21` (centres undefined), for which the cell number change was 17.5%. Besides, under setting [1], the AC50 was 6.51 µM [rising, single point].

For `COCCCNC(=O)c1cn(CC(C)C)c(=O)c2c1c1ccccc1n2C`, the AC50 is, setting by setting: under setting [2], 6.51 µM [rising, single point]; under setting [1], 29.1 µM [falling, single point].

For `Cc1c(N/N=C(\C#N)C(=O)c2ccccc2)c(=O)n(-c2ccccc2)n1C`, the cell number change is -4.05%.

Consider `C/C(=N/OC(=O)c1ccc(Br)cc1)c1ccc(C)cc1`, for which the cell number change is -16.2%. The AC50 under setting [1] is 0.58 µM [rising, single point].

As to `CCCNS(=O)(=O)c1ccc(CCC(=O)Nc2ccc3c(c2)OCCO3)cc1`, the cell number change worked out at 20.3%. Also, the concentration at half-maximal activity (AC50) under setting [1] is 0.461 µM [rising, full curve, poor fit].

For the compound `S=c1[nH]nc(CCc2ccccc2)n1-c1ccccc1`, the cell number change was 1.57%. The AC50 under setting [1] is 25.9 µM [falling, partial curve, poor fit].

As to `O=C(CSc1nc2ccccc2c(=O)n1CCCN1CCOCC1)c1c[nH]c2ccccc12`, the AC50 under setting [2] was 6.51 µM [falling, single point] and the AC50 under setting [1] was 6.51 µM [falling, single point].

As for `C=CCn1c(SCC(=O)NCC2CCCO2)nnc1-c1ccccc1` (centres undefined), the cell number change was -4.2%. For the same compound, the AC50 under setting [1] is 35.5 µM [rising, single point].

`COCCn1cnc2c1c(=O)n(Cc1ccccc1C#N)c(=O)n2Cc1ccccc1`: the cell number change is -20.6%. Further, under setting [2], the AC50 is 0.13 µM [falling, full curve, poor fit].

Regarding `CCc1noc(C)c1C(=O)N(CCCOC)c1c(N)n(Cc2ccccc2)c(=O)[nH]c1=O`, the cell number change stood at 7.47%. Further, the AC50 under setting [1] was 29.1 µM [rising, single point].

Consider `Cc1oc2c(c1C(=O)N1CCOCC1)C(=O)c1ccccc1C2=O`, for which the cell number change is -29.7%. Also, under setting [1], the AC50 was 29.1 µM [falling, single point].

On to `CCC(=O)Nc1ccc2c(c1)nc(CCN1CCCCC1)n2C`, for which the cell number change was 18.5%. The half-maximal activity concentration (AC50) under setting [1] was 0.461 µM [rising, full curve, poor fit].

On to `Cc1cccc(C(C(=O)NC2CCCC2)N(C(=O)c2csnn2)C2CCCC2)c1` (centres undefined), for which the cell number change was -18.3%. Further, the AC50 under setting [1] was 6.51 µM [falling, single point].

Regarding `c1ccc(C(c2nnnn2Cc2ccco2)N2CCN(c3nc4ccccc4s3)CC2)cc1` (centres undefined), the cell number change was -14.1%. Moreover, the AC50 under setting [1] was 29.1 µM [falling, single point].

As for `CC1(C)C(=O)OC(c2ccccc2)C2(CCCC2)C1=O` (centres undefined), the cell number change is -6.67%. Moreover, the AC50 under setting [1] is 29.1 µM [rising, single point].

Consider `Cn1c(SCC(=O)NCc2ccco2)nnc1-c1c[nH]c2ccccc12`, for which the cell number change was found to be 0.524%. Also, the AC50 under setting [1] is 16.4 µM [falling, partial curve].

With `CCN(C(=O)COC(=O)CCn1c(C)csc1=O)c1c(N)n(Cc2ccccc2)c(=O)[nH]c1=O`, the cell number change is 17%. The AC50 under setting [1] is 4.11 µM [falling, single point].

Regarding `CCN(CC)c1ccc(NC(=O)c2cnccn2)cc1S(=O)(=O)Nc1ccc(OC)cc1`, the AC50 under setting [1] was 25.9 µM [rising, partial curve].

For `COc1cc(NC(=O)c2c3c(nc4ccccc24)CCC3)cc(OC)c1`, the cell number change amounted to 79.9%. In addition, under setting [2], the AC50 was 14.6 µM [rising, partial curve].

Regarding `CCCCn1c(N)c(N(CCC(C)C)C(=O)CCN2C(=O)C3CC=CCC3C2=O)c(=O)[nH]c1=O` (centres undefined), the cell number change turned out to be 2.15%.

For `CN1CCC(N2CCCC(C(=O)O)C2)CC1` (centres undefined), the AC50 under setting [1] was 29.1 µM [falling, single point].

On to `CCCCSc1nnc([C@@H](NC(=O)OC(C)(C)C)C(C)C)o1`, for which the cell number change was 39.6%. Further, under setting [2], the AC50 was 4.11 µM [rising, single point].

For the compound `CC(=O)Nc1ccc(S(=O)(=O)N(C)CC(=O)OCC(=O)c2ccc3c(c2)NC(=O)CO3)cc1`, the cell number change was -10%. Moreover, under setting [1], the AC50 is 29.1 µM [falling, single point].

On to `Cc1ccc(S(=O)(=O)NC(=O)N2CCN(Cc3c(F)cccc3Cl)CC2)cc1`, for which the cell number change is -35.1%. Further, the AC50 under setting [2] is 6.51 µM [falling, partial curve]. The AC50 under setting [1] is 6.51 µM [falling, partial curve].

For the compound `CCN(Cc1ccccc1)C(=O)CCS(=O)(=O)c1cc2c(cc1Cl)NC(=O)CO2`, the cell number change was -19.3%. Besides, under setting [1], the AC50 was 0.82 µM [falling, single point].

As for `CCN(CC(=O)Nc1ccccc1OC)C(=O)c1ccc(N(C)S(=O)(=O)c2ccc(C)cc2)cc1`, the cell number change was -38.2%. Moreover, the AC50 under setting [2] was 18.4 µM [falling, partial curve]. For the same compound, under setting [1], the AC50 is 0.731 µM [falling, full curve].

With `O=C(Nc1ccccc1)Nc1ccccc1C(=O)NCc1ccco1`, the cell number change is 153%. Further, the AC50 under setting [2] was 16.4 µM [rising, single point]. Further, the AC50 under setting [1] is 18.4 µM [rising, partial curve].

Source of the values: PubChem BioAssay AID2685 (National Center for Advancing Translational Sciences (NCATS), 2010).
